Results as given in the supplement of paper PMC12067093, “Discovery and optimisation of a covalent ligand for TRIM25 and its application to targeted protein ubiquitination” (Chemical Science, 2025).
Some of the results follow.

Sequences of proteins named here, by UniProt entry; tags and fusion partners are left off. A change or cut given only in a name is not applied to a line headed by its entry.
UniProt Q92546: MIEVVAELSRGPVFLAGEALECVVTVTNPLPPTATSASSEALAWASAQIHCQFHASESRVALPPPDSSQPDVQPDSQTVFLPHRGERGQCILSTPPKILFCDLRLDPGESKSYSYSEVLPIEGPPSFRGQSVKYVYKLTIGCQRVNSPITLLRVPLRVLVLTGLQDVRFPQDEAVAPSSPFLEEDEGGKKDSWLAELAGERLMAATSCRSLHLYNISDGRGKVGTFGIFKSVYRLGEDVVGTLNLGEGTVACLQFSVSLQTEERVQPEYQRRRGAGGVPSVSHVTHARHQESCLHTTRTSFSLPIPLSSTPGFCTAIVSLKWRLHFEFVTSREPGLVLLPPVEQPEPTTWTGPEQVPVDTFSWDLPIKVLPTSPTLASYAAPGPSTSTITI
UniProt Q13129: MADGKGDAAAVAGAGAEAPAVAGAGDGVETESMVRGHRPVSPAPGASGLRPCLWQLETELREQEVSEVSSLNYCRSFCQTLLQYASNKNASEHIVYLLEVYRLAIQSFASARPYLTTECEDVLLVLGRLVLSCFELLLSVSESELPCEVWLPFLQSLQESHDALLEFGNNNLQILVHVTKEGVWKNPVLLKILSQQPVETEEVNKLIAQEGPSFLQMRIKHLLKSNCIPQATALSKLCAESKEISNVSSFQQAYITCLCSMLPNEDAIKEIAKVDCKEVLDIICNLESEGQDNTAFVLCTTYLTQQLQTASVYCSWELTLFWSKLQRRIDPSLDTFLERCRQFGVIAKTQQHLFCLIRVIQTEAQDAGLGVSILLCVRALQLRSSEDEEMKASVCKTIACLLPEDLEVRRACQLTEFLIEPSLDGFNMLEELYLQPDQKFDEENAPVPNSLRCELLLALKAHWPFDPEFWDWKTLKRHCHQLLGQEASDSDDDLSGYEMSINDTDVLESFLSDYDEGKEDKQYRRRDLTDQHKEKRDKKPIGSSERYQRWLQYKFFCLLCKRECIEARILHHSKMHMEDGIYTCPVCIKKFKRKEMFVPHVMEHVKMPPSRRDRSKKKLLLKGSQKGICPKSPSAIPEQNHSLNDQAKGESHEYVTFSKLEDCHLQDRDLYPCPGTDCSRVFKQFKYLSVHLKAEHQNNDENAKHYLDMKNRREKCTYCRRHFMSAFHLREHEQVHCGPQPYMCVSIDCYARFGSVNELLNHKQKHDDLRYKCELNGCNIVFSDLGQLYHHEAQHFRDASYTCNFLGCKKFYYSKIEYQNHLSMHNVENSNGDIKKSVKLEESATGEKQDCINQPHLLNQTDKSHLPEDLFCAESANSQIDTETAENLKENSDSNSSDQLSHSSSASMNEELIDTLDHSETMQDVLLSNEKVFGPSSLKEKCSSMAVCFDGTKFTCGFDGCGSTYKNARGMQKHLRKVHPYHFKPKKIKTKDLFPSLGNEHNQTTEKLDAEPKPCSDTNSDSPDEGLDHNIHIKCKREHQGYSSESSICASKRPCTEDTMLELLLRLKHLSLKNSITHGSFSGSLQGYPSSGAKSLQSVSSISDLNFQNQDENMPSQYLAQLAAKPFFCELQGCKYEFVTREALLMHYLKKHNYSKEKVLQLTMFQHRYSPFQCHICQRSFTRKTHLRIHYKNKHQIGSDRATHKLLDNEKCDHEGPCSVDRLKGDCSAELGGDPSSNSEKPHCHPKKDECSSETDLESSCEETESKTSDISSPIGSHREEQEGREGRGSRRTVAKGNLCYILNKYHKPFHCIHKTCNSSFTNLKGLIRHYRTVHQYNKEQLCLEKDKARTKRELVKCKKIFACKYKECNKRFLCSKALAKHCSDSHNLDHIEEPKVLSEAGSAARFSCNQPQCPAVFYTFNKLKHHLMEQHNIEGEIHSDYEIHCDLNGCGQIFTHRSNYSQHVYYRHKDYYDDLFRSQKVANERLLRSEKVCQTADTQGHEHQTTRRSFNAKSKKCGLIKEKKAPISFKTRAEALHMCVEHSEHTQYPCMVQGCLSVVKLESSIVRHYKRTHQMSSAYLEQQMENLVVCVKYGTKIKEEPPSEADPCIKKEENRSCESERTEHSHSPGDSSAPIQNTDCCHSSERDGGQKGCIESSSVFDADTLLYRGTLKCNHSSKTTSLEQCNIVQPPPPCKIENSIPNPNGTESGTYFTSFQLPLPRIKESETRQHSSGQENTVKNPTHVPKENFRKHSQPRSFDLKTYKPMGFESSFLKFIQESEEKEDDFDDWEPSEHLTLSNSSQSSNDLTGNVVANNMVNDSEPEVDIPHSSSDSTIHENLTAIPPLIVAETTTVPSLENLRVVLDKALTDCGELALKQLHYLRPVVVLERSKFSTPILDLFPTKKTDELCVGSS
UniProt Q8TC12: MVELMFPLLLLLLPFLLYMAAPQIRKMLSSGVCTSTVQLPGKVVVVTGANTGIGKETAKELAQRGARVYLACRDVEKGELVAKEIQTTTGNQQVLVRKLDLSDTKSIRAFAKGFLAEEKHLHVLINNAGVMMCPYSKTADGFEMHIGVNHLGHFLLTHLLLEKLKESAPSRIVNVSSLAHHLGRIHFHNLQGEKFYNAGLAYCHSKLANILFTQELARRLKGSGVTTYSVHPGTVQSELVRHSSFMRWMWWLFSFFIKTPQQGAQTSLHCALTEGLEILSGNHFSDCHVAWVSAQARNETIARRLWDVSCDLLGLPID
UniProt Q6PJF5: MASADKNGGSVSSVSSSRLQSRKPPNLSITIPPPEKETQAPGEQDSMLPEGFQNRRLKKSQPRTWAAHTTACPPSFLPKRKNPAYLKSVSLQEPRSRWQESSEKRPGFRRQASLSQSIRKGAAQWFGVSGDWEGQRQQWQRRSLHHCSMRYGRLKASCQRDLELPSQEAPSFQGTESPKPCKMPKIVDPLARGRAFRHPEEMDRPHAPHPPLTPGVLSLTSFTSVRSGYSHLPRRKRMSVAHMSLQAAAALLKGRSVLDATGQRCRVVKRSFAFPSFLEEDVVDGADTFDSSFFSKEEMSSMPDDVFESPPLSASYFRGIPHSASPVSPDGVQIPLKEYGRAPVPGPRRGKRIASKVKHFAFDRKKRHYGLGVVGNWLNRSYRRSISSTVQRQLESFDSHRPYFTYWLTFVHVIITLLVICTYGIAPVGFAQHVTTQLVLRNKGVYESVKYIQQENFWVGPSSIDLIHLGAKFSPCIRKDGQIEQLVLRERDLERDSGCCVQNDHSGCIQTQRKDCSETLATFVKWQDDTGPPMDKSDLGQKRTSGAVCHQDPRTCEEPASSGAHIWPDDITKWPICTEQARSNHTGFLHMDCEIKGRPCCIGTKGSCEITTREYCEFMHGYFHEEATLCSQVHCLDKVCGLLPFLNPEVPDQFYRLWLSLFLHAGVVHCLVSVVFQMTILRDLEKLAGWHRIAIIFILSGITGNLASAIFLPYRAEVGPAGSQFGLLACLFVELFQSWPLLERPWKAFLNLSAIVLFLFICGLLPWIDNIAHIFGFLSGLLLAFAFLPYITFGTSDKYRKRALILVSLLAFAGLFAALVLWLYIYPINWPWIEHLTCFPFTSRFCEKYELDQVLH
UniProt Q13546: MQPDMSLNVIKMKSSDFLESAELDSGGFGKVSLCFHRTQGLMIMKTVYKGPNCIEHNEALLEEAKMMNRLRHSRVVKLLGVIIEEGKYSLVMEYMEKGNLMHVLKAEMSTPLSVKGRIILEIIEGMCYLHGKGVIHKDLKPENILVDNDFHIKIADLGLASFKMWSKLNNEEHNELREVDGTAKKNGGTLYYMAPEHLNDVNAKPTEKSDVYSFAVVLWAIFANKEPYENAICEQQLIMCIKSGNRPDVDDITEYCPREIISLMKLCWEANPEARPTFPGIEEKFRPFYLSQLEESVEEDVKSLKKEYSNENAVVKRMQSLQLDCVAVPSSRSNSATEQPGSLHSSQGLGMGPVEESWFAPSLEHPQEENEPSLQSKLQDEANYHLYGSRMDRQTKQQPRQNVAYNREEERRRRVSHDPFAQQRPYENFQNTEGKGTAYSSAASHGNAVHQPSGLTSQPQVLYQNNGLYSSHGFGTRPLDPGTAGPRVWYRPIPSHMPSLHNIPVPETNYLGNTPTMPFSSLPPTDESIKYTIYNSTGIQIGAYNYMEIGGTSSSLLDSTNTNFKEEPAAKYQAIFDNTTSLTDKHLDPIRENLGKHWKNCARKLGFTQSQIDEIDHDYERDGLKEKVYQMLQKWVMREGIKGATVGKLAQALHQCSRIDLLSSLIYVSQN
UniProt Q15493: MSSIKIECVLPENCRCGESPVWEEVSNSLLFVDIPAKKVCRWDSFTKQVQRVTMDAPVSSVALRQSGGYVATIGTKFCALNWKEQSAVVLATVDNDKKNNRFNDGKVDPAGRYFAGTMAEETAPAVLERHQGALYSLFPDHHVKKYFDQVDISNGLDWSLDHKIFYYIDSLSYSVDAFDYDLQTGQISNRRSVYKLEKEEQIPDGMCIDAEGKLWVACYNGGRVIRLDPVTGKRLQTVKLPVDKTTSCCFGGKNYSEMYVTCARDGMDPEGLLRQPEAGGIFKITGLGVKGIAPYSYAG
UniProt P40938, whole entry, looked up: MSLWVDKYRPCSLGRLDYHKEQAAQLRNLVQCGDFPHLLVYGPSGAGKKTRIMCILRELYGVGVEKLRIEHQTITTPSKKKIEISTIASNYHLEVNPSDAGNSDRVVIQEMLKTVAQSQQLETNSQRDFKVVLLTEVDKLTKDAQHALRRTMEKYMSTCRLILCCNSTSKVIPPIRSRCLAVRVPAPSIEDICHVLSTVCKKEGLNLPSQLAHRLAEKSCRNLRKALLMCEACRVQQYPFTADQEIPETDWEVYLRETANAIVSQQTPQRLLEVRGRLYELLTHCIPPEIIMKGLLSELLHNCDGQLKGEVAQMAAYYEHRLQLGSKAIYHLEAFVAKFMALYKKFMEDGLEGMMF
UniProt Q4ADV7: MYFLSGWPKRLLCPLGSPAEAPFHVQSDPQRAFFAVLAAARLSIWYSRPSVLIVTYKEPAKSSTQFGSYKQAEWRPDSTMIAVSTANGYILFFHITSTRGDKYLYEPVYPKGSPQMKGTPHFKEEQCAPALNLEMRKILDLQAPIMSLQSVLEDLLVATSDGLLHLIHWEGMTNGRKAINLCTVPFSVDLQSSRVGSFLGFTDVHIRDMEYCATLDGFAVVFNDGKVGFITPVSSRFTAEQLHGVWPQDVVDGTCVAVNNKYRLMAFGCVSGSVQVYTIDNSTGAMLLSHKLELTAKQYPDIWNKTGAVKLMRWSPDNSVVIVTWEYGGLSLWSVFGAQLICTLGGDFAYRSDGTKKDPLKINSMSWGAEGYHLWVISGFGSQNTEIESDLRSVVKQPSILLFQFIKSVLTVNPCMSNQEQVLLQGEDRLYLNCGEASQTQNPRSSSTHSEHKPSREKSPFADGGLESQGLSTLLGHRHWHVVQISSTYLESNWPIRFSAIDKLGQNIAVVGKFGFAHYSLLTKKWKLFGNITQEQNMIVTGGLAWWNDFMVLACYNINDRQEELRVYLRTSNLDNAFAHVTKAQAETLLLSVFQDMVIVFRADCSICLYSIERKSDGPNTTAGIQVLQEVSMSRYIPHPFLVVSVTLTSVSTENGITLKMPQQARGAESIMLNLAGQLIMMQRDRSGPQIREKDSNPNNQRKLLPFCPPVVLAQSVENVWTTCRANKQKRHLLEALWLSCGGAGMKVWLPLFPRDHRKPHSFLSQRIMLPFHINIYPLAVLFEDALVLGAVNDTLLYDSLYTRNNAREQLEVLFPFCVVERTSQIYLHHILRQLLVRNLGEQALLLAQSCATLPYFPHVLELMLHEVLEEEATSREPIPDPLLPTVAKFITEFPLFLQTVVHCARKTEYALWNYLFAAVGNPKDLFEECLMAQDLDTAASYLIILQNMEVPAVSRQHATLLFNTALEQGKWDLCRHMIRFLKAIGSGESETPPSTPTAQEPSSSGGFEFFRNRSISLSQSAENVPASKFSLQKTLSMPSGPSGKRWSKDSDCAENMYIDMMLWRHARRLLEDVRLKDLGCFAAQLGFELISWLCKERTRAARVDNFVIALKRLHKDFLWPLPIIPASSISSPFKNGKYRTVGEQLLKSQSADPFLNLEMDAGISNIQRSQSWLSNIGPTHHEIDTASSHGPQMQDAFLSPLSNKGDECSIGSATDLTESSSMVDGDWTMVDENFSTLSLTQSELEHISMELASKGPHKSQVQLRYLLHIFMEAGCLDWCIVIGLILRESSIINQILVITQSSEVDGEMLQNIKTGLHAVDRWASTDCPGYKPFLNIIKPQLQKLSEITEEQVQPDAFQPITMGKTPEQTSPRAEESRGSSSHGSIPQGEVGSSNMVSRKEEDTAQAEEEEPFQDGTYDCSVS
UniProt P40937, whole entry, looked up: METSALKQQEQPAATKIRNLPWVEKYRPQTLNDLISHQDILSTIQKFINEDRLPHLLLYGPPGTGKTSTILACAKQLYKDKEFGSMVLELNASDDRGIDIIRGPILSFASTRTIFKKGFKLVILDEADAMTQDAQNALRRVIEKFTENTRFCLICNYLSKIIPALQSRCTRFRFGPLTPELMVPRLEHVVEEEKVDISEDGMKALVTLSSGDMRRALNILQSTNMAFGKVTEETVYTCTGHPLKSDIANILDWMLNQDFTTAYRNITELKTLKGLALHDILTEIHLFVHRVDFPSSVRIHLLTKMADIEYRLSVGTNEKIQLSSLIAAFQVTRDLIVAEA

Compound: CC1Cc2ccccc2N1C(=O)C1CCCN(C1)C(=O)CCl (mixture of isomers) [TRIM25 ligand 11 (diastereomer mixture)]
Test: probe-labelled cysteine peptide fold change vs DMSO (competition) (log2 fold change); higher = less target engagement (more negative = stronger competition)
Conditions: THP-1, incubation time: 4 h
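Note: competitive chemoproteomic profiling in live THP-1 cells with an iodoacetamide desthiobiotin (IA-DTB) probe, comparing probe-labelled peptide intensities in compound-treated cells against DMSO-treated controls.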

Row | Target | probe-labelled cysteine peptide fold change (10 µM) | probe-labelled cysteine peptide fold change (50 µM)
1 | RGP1_Q92546_90_GQCILSTPPK (UniProt Q92546) | -0.0252 | -0.162
2 | RLF_Q13129_1015_LDAEPKPCSDTNSDSPDEGLDHNIHIK (UniProt Q13129) | 0.0698 | -0.247
3 | RHOT1_Q8IXI2_421_CNVIGVK (UniProt Q8IXI2) | -0.112 | 0.209
4 | RDH11_Q8TC12_33_MLSSGVCTSTVQLPGK (UniProt Q8TC12) | 0.0781 | 0.427
5 | RFC4_P35249_180_FCLICNYVSR (UniProt P35249) | -0.16 | -0.0464
6 | RHBDF2_Q6PJF5_500_DSGCCVQNDHSGCIQTQR (UniProt Q6PJF5) | 0.0324 | -0.0623
7 | RIPK1_Q13546_34_VSLCFHR (UniProt Q13546) | 0.0614 | 0.0917
8 | RGN_Q15493_262_NYSEMYVTCAR (UniProt Q15493) | 0.477 | 0.395
9 | RFC3_P40938_233_ALLMCEACR (UniProt P40938) | -0.032 | 0.259
10 | RIC1_Q4ADV7_127_EEQCAPALNLEMR (UniProt Q4ADV7) | -0.0426 | -0.0612
11 | RMND1_Q9NWS8_310_FAFSNALCLSVK (UniProt Q9NWS8) | -0.239 | 0.267
12 | RLF_Q13129_1642_TEHSHSPGDSSAPIQNTDCCHSSER (UniProt Q13129) | 0.166 | -0.309
13 | RFC5_P40937_73_TSTILACAK (UniProt P40937) | -0.0102 | -0.0904
14 | RLF_Q13129_749_EHEQVHCGPQPYMCVSIDCYAR (UniProt Q13129) | -0.161 | 0.182
15 | RFC3_P40938_32_NLVQCGDFPHLLVYGPSGAGK (UniProt P40938) | 0.175 | -0.0134

Whole records from above.
RDH11_Q8TC12_33_MLSSGVCTSTVQLPGK (UniProt Q8TC12) in the list: probe-labelled cysteine peptide fold change (10 µM) = 0.0781; probe-labelled cysteine peptide fold change (50 µM) = 0.427
RFC3_P40938_233_ALLMCEACR (UniProt P40938) in the list: probe-labelled cysteine peptide fold change (10 µM) = -0.032; probe-labelled cysteine peptide fold change (50 µM) = 0.259
